Data published in publication PMC11157265.
Results are given in words; binding and its absence hold for the method and conditions named. Sequences can lack the tags named with a protein.

Target: PduA_GGSST (PduA with a 30 residue C-terminal extension, six repeats of GGSST) (C. freundii)
Test: native gel or EMSA; band shift on native gel run at pH 9.5 instead of pH 8.5; PduL added to PduA, A63R or A^GGSST; both purified

B1: PduL (Citrobacter freundii), His-tag cleaved (enzyme, UniProt B1VB71 1-210)
chain: MDKQQLETTVTKVLDEMRERPIPLGISNRHIHLCAEDYDRLFPNHPISEKKELLQPGQYAADQTVTLVGPKGQLKNVRLLGPLRSTSQVEISRTDARTLGIAAPLRMSGSIEGTPGVRLISPFAELDLASGVIVAQRHIHMSPLDALILRVSHGDKVSVAINGDERRLIFDNVAVRVSPDMRLEMHIDTDEANAAGADNPQAFATLVSPR
  binding: no binding
